Experimental data published in patent EP0113632A1, “Process for the preparation of halogen methylates of levallorphane, and peripheral narcotic antagonist pharmaceutical compositions containing them” (SANOFI S.A., priority 1982, dated 1984).

Test system: effet analgésique de la morphine
Assay: Hot plate test: antagonism of the analgesic effect of morphine
Format: in vivo, souris
Settings: conclusion in words drawn from Tableau I (central antagonism of morphine analgesia)
Method: L'antagonisme à l'effet analgésique de la morphine a été évalué selon le test classique pour l'analgésie de la plaque chauffante (Eddy et Leibach, J. Pharmacol. 1953, 107, 385, modifié par Janseen et Jagenau, J. Pharm. Pharmacol. 1957, 9, 381-400). Ce test est très sensible pour l'action des antogonistes des opiacés.
On utilise des souris femelles de 18 à 22 g. Les substances sont administrées en solution physiologique (20 ml/kg) par voie sous-cutanée 5 minutes avant l'administration de la morphine (24 mg/kg s.c.). Trente minutes après la morphine, on place les animaux sur la plaque chauffante et l'on évalue le temps de réaction des animaux qui présentent la réaction nocicéptive (léchage des pattes).
L'activité des substances à activité antagoniste périphérique des narcotiques est évaluée sur la base de l'inhibition pour cent de l'effet constipant et de l'effet analgésique de la morphine. La dose qui inhibe de 50 % lesdits effets (DI50c pour l'effet constipant et […] pour l'effet analgésique) a été extrapolée de la droite de régression log dose-réponse en appliquant l'analyse de la variance par régression linéaire.

SMILES	passage de la barrière hématoméningée
C=CC[N+]1(CC=C)CC[C@]23CCCC[C@H]2[C@H]1Cc1ccc(O)cc13 [bromoallylate de lévallorphan]	montre une tendance au passage de la barrière hématomèningèe
C=CC[N+]1(C)CC[C@]23CCCC[C@H]2[C@H]1Cc1ccc(O)cc13 (single isomer, unassigned) [iodométhylate de lévallorphan]	ne passe pas la barrière hèmatoméningée
